In article PMC8545988:

Molecular target: BD-11TPR (11-TPR domain of SPY in pGBKT7) (Arabidopsis thaliana)
Assay: two-hybrid; one-to-one test: pGBKT7 baits with pGADT7-CPN20; growth on SD/-Trp/-Leu/-His/AbA/X-alpha-Gal or SD/-Trp/-Leu/-His/-Ade/AbA/X-alpha-Gal; pictures after 4 days on SD-3/X/A

binding: binds
B1: AD-CPN20 (full-length CPN20 in pGADT7) (protein, UniProt O65282 1-253)
chain: MAATQLTASPVTMSARSLASLDGLRASSVKFSSLKPGTLRQSQFRRLVVKAASVVAPKYTSIKPLGDRVLVKIKEAEEKTLGGILLPSTAQSKPQGGEVVAVGEGRTIGKNKIDITVPTGAQIIYSKYAGTEVEFNDVKHLILKEDDIVGILETEDIKDLKPLNDRVFIKVAEAEEKTAGGLLLTETTKEKPSIGTVIAVGPGSLDEEGKITPLPVSTGSTVLYSKYAGNDFKGKDGSNYIALRASDVMAILS

No constants are given. Whether binding was seen depends on the method and setting. Binding can be weak; no strength is given. Where a sequence is shown, tags or fusion partners need not be part of it.
